Experimental data taken from patent publication US20020119917A1 (priority 1996, published 2002).

How the values were obtained:
[1] = general procedure: Fmoc solid-phase peptide synthesis; Wang resin preloaded with N-Fmoc C-terminal amino acid (0.3-0.7 mmol/g); rink amide for peptides 11-14; PyBop / 4-methyl-morpholine (NMM); conditions: for final HPLC purity / isolated mass: whole synthesis; for final HPLC purity: analytical RP-HPLC, Lichrospher-100 RP-18, UV 220 nm, scale of the general procedure 12.5 μmol; for isolated mass: scale 12.5 μmols
[2] = general procedure: Fmoc solid-phase peptide synthesis; Wang resin; PyBop / 4-methyl-morpholine (NMM); conditions: whole synthesis, scale 12.5 μmol
[3] = general procedure: Fmoc solid-phase peptide synthesis; rink amide; PyBop / 4-methyl-morpholine (NMM); conditions: whole synthesis, scale 12.5 μmols

Substance	final HPLC purity [1]	isolated mass [1]	isolated mass [2]	conjugation yield ([1]; conjugation step, one disulfide bridge, sequence written open) [%]	isolated mass [3]
CH3CONH(CH2)5CO-Val-Thr-Val-Ala-Pro-Val-His-Ile-OH	above 97%	approx. 12 mg	–	–	–
H-VTVAPVHI-OH	above 99%	–	approx. 12 mg	–	–
Gly79-Ser-Glu-Ile-Leu-Phe-Glu-Val-Pro-Glu-Val-Thr-Val-Ala-Pro-Val-His-Ile-Cys97-Cys36-His-Leu-Phe39	–	–	–	75	–
1-adamantyl-NH—CO-Val-Thr-Val-Ala-Pro-Val-His-Ile-OH	above 97%	approx. 10 mg	–	–	–
CH3OCO(CH2)2CO-Val-Thr-Val-Ala-Pro-Val-His-Ile-OH	above 98%	approx. 10 mg	–	–	–
H-VTVAPVHI-NH2	above 98%	–	–	–	approx. 8 mg
CH3(CH2)6CO-Val-Thr-Val-Ala-Pro-Val-His-Ile-OH	above 98%	approx. 10 mg	–	–	–
